{
  "source": "paper PMC4795683",
  "biological_target": "T1, Cuf2-TAP (S. pombe) (UniProt O94588)",
  "T1 sequence": "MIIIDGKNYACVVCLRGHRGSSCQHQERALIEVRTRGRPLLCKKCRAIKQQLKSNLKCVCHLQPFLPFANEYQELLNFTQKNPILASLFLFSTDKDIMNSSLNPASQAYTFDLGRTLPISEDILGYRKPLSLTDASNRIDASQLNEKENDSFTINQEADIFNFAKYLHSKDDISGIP",
  "experiment": "co-IP; TAP pull-down: whole-cell extracts (10 mg protein) of vegetative S. pombe cells, Mei4-GFP induced 18 h without thiamine, mixed with IgG Sepharose 6 Fast-Flow beads 2 h at 4°C; lysis buffer 10 mM Tris-HCl pH 7.9, 0.1% Triton X-100, 0.5 mM EDTA, 20% glycerol, 100 mM NaCl; bound proteins blotted with anti-GFP, anti-IgG and anti-α-tubulin",
  "note": "Results are given in words; binding and its absence hold for the method and conditions named. Binding seen in cells or lysates may run through a third protein.",
  "data": [
    {"substance": "α-tubulin (S. pombe (endogenous in S. pombe cells))", "values": [
      {"measurement": "binding", "result": "no binding"}
    ]}
  ]
}
